The record followed here is article PMC12591107.

Sequences of proteins named here, by UniProt entry; tags and fusion partners are left off. A change or cut given only in a name is not applied to a line headed by its entry.
UniProt P63158: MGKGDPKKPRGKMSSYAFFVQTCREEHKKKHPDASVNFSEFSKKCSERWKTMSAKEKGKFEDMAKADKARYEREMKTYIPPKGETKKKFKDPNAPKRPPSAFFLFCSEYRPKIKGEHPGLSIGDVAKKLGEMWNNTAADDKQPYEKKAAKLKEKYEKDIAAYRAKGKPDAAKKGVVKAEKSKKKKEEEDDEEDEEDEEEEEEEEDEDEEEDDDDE
UniProt Q6P5F9: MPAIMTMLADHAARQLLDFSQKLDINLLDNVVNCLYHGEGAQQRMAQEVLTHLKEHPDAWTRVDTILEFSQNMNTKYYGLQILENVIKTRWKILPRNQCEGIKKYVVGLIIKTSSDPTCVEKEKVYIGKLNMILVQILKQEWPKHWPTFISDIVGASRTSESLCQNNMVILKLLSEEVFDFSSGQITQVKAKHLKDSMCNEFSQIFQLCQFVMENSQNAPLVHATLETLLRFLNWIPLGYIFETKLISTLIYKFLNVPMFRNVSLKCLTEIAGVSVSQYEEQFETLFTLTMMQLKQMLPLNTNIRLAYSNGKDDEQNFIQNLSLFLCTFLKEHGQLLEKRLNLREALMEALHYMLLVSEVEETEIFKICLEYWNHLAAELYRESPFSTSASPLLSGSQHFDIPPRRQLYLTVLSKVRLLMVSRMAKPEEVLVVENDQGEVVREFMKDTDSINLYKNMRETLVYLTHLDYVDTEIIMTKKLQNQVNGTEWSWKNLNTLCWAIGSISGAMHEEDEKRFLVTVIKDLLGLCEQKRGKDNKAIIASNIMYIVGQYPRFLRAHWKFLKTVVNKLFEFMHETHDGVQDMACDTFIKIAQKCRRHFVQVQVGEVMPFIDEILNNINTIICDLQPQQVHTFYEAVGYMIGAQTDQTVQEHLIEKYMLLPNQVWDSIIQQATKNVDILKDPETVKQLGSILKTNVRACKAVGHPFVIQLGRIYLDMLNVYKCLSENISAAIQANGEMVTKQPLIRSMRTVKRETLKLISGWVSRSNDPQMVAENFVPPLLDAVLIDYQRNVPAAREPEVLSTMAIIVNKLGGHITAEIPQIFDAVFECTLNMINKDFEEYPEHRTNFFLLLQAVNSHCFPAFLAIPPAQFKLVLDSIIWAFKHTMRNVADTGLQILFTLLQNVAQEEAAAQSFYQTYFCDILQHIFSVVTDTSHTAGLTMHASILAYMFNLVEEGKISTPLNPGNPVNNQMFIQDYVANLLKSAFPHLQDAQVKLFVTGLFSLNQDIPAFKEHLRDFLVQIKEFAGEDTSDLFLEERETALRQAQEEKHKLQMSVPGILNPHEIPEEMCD

The target in experiment [1] is T1, HA-tagged WT TIAR (TIAR-WT-HA) (mouse) (UniProt P70318).
T1 sequence: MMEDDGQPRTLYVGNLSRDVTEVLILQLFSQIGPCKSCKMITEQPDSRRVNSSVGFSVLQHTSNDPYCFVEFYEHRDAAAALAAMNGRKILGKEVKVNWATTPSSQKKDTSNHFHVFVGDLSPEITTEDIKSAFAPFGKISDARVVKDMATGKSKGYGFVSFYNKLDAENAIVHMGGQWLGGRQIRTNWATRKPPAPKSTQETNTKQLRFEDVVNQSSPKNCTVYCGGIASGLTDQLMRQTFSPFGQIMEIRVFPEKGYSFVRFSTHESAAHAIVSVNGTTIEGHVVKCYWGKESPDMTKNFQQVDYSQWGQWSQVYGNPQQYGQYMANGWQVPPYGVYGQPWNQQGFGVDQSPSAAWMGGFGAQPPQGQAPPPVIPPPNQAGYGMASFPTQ
Nature of the experiment: co-IP; NIH/3T3 with knock-down of endogenous HMGB1 and TIAR, co-transfected with TIAR-WT-HA and MYC-tagged HMGB1 constructs, hypoxia (1% O2) 2 h; IP with HA antibody.

Experiment [2] has as its target High-mobility group box 1 (HMGB1), endogenous (mouse (endogenous in NIH/3T3 and in mouse granulosa cells)) (UniProt P63158). Nature of the experiment: co-IP; HMGB1 and CRM1 under normoxic and hypoxic conditions (Figure S18A,B); details not shown.
The target of a further experiment is T2, HIS-TIAR (mouse) (UniProt P70318).
T2 sequence: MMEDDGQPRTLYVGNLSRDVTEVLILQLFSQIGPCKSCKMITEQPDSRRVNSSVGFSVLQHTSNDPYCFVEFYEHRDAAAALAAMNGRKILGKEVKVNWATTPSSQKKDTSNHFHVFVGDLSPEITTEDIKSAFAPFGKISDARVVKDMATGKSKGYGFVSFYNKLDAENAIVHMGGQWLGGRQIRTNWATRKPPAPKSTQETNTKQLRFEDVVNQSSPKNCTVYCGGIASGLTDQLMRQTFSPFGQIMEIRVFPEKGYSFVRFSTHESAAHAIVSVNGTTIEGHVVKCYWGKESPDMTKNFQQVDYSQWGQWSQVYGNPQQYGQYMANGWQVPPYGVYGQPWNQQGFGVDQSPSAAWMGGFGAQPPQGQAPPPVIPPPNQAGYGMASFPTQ
Nature of the experiment: co-IP; in vitro: 500 µL of each purified protein mixed, room temperature for 12 h, immunoprecipitation with an anti-HIS antibody; both purified.

The target in experiment [3] is MYC-tagged WT HMGB1 (HMGB1-MYC-WT) (mouse) (UniProt P63158). Nature of the experiment: co-IP; NIH/3T3 with knock-down of endogenous HMGB1 and TIAR, co-transfected with HMGB1-WT-MYC and FLAG-tagged TIAR constructs, hypoxia (1% O2) 2 h; IP with MYC antibody.
In experiment [4] the target is High-mobility group box 1 (HMGB1), endogenous (mouse (endogenous in NIH/3T3 and in mouse granulosa cells)) (UniProt P63158). Nature of the experiment: co-IP; granulosa cells collected from mice injected with saline, FSH or FSH + C646; endogenous proteins.
For another experiment, the target named is HMGB1-K172R-MYC (mouse) (UniProt P63158). Nature of the experiment: co-IP; NIH/3T3 transfected with MYC-tagged HMGB1 (WT, K172R or K177R), normoxia or hypoxia (1% O2) 2 h; whole lysate and nuclear/cytoplasmic fractions; interaction between MYC and endogenous TIAR.
The target in the next experiment is HMGB1-K177R-MYC (mouse) (UniProt P63158). Described as above.
Experiment [5] concerns the target MYC-tagged WT HMGB1 (HMGB1-MYC-WT) (mouse) (UniProt P63158). The description is as above.
Experiment [6] has as its target High-mobility group box 1 (HMGB1), endogenous (mouse (endogenous in NIH/3T3 and in mouse granulosa cells)) (UniProt P63158). Nature of the experiment: co-IP; endogenous proteins of NIH/3T3 cells, whole-cell lysates or nuclear/cytoplasmic fractions; normoxia (21% O2) or hypoxia (1% O2) for 2 h; also after LDHA/LDHB siRNA, sodium lactate, C646, Leptomycin B, sodium arsenite or heat shock; IP overnight at 4 °C, Protein A/G magnetic beads.

Results are given in words; binding and its absence hold for the method and conditions named. For some assays here: Binding seen in cells or lysates may run through a third protein. Some binding calls cover weakened binding; strength is not graded here. For some assays here: Sequences can lack the tags named with a protein.

Regarding “HMGB1-MYC 52–139aa (from UniProt P63158 52-139) (domain or fragment)”, the binding result in [1] is “no binding”.

For “CRM1 (also known as Exportin-1) (from UniProt Q6P5F9 1-1071)”, the binding result in experiment [2] was “binds”.

GST-HMGB1 (from UniProt P63158 1-215): in the experiment with HIS-TIAR (mouse), the binding result is “binds”.

Regarding “HMGB1-MYC 140–215aa (from UniProt P63158 140-215) (domain or fragment)”, the binding result in experiment [1] was “binds”.

B1: TIAR-MT-FLAG 361–376aa deletion (protein, UniProt P70318)
chain: MMEDDGQPRTLYVGNLSRDVTEVLILQLFSQIGPCKSCKMITEQPDSRRVNSSVGFSVLQHTSNDPYCFVEFYEHRDAAAALAAMNGRKILGKEVKVNWATTPSSQKKDTSNHFHVFVGDLSPEITTEDIKSAFAPFGKISDARVVKDMATGKSKGYGFVSFYNKLDAENAIVHMGGQWLGGRQIRTNWATRKPPAPKSTQETNTKQLRFEDVVNQSSPKNCTVYCGGIASGLTDQLMRQTFSPFGQIMEIRVFPEKGYSFVRFSTHESAAHAIVSVNGTTIEGHVVKCYWGKESPDMTKNFQQVDYSQWGQWSQVYGNPQQYGQYMANGWQVPPYGVYGQPWNQQGFGVDQSPSAAWMGPPPNQAGYGMASFPTQ
Take B1: the binding entry in experiment [3] was “binds”.

B2: T-cell intracellular antigen-related protein (TIAR), endogenous (protein, UniProt P70318 1-392)
chain: MMEDDGQPRTLYVGNLSRDVTEVLILQLFSQIGPCKSCKMITEQPDSRRVNSSVGFSVLQHTSNDPYCFVEFYEHRDAAAALAAMNGRKILGKEVKVNWATTPSSQKKDTSNHFHVFVGDLSPEITTEDIKSAFAPFGKISDARVVKDMATGKSKGYGFVSFYNKLDAENAIVHMGGQWLGGRQIRTNWATRKPPAPKSTQETNTKQLRFEDVVNQSSPKNCTVYCGGIASGLTDQLMRQTFSPFGQIMEIRVFPEKGYSFVRFSTHESAAHAIVSVNGTTIEGHVVKCYWGKESPDMTKNFQQVDYSQWGQWSQVYGNPQQYGQYMANGWQVPPYGVYGQPWNQQGFGVDQSPSAAWMGGFGAQPPQGQAPPPVIPPPNQAGYGMASFPTQ
With B2, the binding result (in experiment [4]; in the experiment with HMGB1-K172R-MYC (mouse); with HMGB1-K177R-MYC (mouse); in [5]; in [6]) was “binds” in each case.

B3: FLAG-tagged WT TIAR (TIAR-WT-FLAG) (protein, UniProt P70318 1-392)
chain: MMEDDGQPRTLYVGNLSRDVTEVLILQLFSQIGPCKSCKMITEQPDSRRVNSSVGFSVLQHTSNDPYCFVEFYEHRDAAAALAAMNGRKILGKEVKVNWATTPSSQKKDTSNHFHVFVGDLSPEITTEDIKSAFAPFGKISDARVVKDMATGKSKGYGFVSFYNKLDAENAIVHMGGQWLGGRQIRTNWATRKPPAPKSTQETNTKQLRFEDVVNQSSPKNCTVYCGGIASGLTDQLMRQTFSPFGQIMEIRVFPEKGYSFVRFSTHESAAHAIVSVNGTTIEGHVVKCYWGKESPDMTKNFQQVDYSQWGQWSQVYGNPQQYGQYMANGWQVPPYGVYGQPWNQQGFGVDQSPSAAWMGGFGAQPPQGQAPPPVIPPPNQAGYGMASFPTQ
In the case of B3, the binding result in experiment [3] was “binds”.
